The exact form of at least one protein or probe is not confirmed. Results from cells or extracts need not show a direct contact. For part of these data: A negative result means that nothing was seen under these conditions.
How the values were obtained:
[1] = biological target: Ku70 (XRCC6), Ku heterodimer subunit (Homo sapiens) (UniProt P12956); assay: pull-down; conditions: protein in an extract, label: Cy3 or biotin
[2] = tested on: Ku70/Ku80 heterodimer (Homo sapiens); assay: pull-down; conditions: aptamer precipitation and mass spectrometry, U87MG and 1321N1 lysates; protein in an extract; label: Cy3 or biotin

Chains of the proteins cited; added tags and fusions are not shown. Chains listed by the source or under a name are the forms on record and can include a tag or linker. Residues count along the entry.
UniProt P12956, 2-609: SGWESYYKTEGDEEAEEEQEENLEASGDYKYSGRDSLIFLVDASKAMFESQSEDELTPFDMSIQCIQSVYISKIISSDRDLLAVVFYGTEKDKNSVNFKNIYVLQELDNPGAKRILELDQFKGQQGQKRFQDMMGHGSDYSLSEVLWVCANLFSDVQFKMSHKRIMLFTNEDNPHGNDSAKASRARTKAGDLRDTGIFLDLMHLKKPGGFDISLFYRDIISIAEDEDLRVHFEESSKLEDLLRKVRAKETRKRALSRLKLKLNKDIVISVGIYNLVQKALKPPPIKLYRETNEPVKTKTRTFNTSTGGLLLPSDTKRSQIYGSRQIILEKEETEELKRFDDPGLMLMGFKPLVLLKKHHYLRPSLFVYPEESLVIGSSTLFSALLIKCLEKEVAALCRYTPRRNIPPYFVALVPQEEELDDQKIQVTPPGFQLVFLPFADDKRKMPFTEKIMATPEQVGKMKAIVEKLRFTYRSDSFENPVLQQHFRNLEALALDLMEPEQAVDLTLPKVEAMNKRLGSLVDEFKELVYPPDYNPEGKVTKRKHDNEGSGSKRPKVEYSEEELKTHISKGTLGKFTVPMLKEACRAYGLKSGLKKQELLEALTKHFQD
Ku70/Ku80 heterodimer (Homo sapiens), one chain, as listed by the source, chain 1 of 2: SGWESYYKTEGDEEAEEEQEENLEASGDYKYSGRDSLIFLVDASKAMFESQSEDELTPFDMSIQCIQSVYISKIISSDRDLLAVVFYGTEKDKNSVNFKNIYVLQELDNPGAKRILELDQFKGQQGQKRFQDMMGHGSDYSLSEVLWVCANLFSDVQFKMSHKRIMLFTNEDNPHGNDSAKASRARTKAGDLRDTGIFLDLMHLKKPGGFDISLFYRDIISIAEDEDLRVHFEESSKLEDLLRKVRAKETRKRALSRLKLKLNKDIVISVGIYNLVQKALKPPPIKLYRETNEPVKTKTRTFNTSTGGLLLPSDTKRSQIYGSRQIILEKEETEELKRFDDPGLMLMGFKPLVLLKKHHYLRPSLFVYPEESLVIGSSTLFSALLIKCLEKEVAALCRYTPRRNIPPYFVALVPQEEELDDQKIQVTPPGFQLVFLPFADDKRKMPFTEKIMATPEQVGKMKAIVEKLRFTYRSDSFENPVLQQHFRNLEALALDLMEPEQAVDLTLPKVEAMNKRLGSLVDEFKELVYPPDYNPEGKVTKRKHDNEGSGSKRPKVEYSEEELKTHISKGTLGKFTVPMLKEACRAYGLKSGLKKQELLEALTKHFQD
Ku70/Ku80 heterodimer (Homo sapiens), one chain, as listed by the source, chain 2 of 2: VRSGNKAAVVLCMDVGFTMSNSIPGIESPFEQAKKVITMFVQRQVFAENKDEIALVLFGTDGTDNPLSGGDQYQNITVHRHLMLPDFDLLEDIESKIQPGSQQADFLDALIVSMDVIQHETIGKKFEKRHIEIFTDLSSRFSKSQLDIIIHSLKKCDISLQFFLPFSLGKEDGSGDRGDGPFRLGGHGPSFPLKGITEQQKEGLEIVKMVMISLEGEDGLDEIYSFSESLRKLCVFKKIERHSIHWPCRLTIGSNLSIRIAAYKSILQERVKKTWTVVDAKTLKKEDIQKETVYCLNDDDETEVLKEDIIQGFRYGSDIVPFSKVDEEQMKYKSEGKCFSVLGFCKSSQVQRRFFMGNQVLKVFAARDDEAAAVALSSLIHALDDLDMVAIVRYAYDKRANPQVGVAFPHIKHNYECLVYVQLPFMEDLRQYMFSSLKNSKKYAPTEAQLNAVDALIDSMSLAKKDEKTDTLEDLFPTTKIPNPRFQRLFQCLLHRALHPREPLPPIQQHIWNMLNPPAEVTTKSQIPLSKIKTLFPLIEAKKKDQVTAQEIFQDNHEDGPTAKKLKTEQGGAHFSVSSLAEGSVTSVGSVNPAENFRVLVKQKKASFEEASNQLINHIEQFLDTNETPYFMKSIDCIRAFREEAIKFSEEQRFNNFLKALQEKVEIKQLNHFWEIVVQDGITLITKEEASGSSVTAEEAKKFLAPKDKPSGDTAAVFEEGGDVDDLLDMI

Sequence | binding result ([1]; aptamer precipitation from U87 lysate, Western blot for Ku70) | binding result [2] | binding result ([1]; SA44 used as control, no Ku70 detected)
ACGUUACUCUUGCAACACAAACUUUAAUAGCCUCUUAUAGUUC [SA43 (GL43)] | binds | binds | –
ACGUUACUCUUGCAACACCCAAACUUUAAUAGCCUCUUAUAGUUC [SA44 (GL44)] | – | – | no binding

Source: patent US9834771
